Assay results: the supplement of paper PMC10849652
The list shows a part of the results.

Sequences of proteins named here, by UniProt entry; tags and fusion partners are left off. A change or cut given only in a name is not applied to a line headed by its entry.
UniProt O60884: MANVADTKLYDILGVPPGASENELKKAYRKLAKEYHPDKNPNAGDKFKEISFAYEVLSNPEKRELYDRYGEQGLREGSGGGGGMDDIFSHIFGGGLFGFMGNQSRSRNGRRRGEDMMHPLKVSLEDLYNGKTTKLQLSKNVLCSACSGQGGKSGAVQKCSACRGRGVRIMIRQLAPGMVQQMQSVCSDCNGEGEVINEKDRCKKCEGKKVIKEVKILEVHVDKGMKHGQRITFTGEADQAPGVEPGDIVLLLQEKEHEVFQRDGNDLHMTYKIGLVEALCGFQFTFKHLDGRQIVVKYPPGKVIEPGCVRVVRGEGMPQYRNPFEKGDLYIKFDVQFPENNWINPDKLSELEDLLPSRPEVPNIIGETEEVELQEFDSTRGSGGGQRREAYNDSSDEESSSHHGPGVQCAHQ
UniProt Q8IVF4: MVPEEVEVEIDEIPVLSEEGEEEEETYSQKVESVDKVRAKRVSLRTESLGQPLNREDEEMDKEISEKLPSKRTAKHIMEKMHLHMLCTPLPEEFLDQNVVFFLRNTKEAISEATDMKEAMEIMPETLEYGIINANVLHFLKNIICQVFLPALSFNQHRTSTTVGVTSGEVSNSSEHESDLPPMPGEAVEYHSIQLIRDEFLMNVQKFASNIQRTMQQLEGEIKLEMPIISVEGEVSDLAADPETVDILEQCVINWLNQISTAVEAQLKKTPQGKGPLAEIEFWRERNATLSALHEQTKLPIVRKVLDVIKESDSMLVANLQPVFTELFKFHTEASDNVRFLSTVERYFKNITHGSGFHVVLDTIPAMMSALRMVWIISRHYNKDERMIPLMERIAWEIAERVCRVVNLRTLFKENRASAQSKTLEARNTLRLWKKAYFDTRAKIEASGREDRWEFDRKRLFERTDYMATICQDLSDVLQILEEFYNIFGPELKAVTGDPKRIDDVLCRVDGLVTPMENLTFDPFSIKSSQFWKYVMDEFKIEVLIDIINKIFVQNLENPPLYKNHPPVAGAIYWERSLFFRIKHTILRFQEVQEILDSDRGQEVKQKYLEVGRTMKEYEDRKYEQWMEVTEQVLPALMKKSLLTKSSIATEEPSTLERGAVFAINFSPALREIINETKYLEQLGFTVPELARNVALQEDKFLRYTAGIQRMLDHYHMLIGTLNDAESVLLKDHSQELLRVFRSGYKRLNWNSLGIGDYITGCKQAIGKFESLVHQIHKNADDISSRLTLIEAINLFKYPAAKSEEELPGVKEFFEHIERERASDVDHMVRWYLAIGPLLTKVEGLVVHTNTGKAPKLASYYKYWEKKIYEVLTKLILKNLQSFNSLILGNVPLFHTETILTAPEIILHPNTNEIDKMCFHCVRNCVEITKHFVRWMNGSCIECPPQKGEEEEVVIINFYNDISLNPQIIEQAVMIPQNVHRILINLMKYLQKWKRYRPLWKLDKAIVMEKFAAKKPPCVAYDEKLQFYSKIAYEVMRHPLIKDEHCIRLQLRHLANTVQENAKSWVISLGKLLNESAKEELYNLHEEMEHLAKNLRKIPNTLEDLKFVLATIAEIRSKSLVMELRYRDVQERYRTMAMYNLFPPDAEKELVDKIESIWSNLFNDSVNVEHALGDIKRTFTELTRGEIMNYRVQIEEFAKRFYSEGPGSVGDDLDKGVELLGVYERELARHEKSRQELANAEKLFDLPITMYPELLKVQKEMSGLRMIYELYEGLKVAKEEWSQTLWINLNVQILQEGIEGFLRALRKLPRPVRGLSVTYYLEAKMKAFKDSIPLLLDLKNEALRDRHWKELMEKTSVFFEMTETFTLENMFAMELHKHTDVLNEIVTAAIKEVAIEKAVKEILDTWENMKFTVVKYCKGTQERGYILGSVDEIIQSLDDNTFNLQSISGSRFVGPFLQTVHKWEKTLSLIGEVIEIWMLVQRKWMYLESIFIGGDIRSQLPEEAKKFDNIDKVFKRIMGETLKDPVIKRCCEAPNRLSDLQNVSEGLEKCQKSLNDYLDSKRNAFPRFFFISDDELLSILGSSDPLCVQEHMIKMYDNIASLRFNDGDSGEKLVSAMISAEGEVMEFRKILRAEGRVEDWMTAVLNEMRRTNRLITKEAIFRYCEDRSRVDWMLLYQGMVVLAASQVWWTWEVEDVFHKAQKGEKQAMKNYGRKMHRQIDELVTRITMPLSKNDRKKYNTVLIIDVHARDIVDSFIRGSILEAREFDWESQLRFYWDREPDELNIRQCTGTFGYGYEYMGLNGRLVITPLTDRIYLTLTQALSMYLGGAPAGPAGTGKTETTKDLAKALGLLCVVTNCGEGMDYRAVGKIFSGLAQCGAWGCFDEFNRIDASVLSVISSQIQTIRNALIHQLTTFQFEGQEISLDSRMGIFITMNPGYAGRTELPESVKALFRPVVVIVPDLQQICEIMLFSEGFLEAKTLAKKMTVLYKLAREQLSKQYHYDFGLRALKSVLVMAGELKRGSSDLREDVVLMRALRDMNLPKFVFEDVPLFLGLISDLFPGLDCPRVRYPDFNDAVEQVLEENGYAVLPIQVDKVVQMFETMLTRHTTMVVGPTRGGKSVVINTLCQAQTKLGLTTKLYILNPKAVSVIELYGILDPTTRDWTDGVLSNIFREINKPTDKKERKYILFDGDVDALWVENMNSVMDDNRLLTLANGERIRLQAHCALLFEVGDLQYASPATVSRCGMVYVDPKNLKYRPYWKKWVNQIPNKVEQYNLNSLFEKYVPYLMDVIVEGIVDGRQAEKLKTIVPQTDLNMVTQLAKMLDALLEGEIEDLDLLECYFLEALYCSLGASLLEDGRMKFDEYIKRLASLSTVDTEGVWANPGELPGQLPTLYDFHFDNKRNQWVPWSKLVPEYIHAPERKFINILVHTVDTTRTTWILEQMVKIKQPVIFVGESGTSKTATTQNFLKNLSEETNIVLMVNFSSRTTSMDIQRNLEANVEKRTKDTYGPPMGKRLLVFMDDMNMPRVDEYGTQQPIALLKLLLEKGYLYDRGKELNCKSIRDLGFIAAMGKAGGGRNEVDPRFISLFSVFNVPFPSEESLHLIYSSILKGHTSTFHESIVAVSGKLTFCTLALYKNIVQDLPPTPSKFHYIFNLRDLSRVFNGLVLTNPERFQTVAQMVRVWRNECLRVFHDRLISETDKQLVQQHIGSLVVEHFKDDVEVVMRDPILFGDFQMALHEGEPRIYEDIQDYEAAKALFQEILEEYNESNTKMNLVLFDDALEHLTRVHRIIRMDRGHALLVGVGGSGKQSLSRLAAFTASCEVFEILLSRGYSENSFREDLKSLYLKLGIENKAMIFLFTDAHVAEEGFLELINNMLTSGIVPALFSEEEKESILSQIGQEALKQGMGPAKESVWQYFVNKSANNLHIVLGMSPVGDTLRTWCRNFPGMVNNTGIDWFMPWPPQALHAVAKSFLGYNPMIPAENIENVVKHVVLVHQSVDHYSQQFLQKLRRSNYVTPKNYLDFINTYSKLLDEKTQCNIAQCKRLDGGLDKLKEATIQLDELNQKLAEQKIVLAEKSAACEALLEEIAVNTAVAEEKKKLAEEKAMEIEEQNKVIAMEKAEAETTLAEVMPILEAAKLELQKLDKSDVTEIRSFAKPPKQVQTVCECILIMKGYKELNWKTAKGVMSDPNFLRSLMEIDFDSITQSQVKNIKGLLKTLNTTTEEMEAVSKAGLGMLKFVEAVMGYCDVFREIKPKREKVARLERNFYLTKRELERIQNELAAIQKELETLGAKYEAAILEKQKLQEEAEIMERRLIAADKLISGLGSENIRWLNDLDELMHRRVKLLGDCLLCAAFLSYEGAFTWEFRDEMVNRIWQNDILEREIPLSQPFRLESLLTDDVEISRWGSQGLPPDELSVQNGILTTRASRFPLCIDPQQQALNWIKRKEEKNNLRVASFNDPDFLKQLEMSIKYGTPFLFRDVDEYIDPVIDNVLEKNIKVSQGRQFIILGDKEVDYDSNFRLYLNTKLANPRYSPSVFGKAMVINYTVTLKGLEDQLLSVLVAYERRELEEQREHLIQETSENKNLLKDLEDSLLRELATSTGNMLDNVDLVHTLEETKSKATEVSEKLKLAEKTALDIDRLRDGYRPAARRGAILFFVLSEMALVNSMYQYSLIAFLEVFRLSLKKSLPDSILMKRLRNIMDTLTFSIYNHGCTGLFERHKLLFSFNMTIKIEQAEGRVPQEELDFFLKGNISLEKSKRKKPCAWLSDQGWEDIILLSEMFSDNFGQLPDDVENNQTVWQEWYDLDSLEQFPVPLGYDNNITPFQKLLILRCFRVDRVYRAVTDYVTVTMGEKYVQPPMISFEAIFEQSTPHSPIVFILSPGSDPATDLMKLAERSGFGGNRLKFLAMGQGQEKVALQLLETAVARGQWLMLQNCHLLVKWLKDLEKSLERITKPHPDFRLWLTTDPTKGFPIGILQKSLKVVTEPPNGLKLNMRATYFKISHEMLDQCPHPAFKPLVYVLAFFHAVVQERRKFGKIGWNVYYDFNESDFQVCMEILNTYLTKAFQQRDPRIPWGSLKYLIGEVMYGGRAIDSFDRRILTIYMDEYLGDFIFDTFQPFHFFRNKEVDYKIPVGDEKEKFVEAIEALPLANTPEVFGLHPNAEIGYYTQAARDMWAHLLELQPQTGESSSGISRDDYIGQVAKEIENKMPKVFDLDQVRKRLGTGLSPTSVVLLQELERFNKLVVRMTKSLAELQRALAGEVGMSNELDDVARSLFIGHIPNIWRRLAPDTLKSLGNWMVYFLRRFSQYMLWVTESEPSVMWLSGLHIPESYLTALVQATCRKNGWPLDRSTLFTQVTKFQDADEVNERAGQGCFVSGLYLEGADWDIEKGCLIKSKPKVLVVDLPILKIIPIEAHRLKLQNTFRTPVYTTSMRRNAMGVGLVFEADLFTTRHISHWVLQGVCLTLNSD
UniProt P00374: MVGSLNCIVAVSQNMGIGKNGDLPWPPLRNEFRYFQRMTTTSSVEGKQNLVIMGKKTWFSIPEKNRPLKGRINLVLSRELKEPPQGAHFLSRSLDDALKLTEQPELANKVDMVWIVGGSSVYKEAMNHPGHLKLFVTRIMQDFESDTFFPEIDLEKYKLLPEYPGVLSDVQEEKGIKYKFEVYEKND
UniProt Q9UDY4: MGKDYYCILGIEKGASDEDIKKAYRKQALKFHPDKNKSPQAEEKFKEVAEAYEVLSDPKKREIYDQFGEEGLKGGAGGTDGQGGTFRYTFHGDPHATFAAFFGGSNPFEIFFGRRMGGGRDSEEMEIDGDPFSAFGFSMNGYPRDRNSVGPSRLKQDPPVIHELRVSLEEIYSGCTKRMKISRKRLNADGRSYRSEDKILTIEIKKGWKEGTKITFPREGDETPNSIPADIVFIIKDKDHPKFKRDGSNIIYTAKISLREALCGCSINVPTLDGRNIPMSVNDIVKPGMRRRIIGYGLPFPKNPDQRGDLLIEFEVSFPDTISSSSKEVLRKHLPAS
UniProt Q8WYQ5: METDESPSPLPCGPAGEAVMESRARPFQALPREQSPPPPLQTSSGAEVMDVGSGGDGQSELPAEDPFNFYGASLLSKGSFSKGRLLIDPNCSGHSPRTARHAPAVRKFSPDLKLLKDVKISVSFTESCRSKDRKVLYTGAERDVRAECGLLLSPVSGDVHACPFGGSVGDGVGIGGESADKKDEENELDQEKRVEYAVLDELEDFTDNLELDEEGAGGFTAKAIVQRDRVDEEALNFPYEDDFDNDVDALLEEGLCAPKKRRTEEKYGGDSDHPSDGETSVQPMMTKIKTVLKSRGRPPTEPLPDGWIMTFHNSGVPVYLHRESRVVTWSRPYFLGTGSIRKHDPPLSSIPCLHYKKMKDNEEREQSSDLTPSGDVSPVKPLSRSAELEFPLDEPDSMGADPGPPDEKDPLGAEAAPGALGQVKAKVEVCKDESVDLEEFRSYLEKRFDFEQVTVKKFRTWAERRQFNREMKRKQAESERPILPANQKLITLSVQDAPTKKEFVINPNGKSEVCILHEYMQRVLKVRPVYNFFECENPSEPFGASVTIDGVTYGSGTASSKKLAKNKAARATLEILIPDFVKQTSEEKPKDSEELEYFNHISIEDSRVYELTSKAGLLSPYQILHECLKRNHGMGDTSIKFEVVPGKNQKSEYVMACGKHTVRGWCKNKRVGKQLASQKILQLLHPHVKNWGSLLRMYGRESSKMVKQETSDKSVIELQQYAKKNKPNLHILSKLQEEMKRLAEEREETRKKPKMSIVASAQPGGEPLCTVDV
UniProt Q86SQ9: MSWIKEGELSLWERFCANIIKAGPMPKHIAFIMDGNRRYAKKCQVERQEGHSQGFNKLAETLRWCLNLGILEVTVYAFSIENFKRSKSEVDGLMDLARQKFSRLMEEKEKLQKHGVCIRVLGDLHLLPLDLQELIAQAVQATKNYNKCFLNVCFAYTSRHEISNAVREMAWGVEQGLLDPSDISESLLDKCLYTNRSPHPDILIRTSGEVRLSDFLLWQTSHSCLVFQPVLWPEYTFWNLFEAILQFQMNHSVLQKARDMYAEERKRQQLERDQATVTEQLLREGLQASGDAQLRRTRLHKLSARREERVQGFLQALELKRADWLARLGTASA

What was measured:
Assay in all cases: log2 fold change, soluble protein after heating vs DMSO (PISA); higher = thermal stabilisation; K562 lysate, 10 uM; active = over 0.2 and 3.5 SD of the protein, either way, in both replicates (recomputed)
[1] = compound: C1=CC=C(C=C1)[C@H](COC2=CC3=C(C=C2)NC(=O)N3)NC(=O)C4=CC=CN(C4=O)CC5=CC(=C(C=C5)F)F
How it was run: (§1)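 The values are log-two fold changes in thermal stability compared with solvent controls and come from duplicates. They were obtained by TMTpro 16plex LC-MS/MS, with channel sums equalised, on the supernatant after 21,000xg for 90 min. That supernatant came from crude K562 extract at 1 mg/mL protein treated with 10 μM compound for 30 min, heated for 3 min across 48°C-58°C, pooled and brought to 0.5% NP-40 at 4°C.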

[2] = compound: CC1=C(SC2=C1C(=N[C@H](C3=NN=C(N32)C)CC(=O)N)C4=CC=C(C=C4)Cl)C
How it was run: as §1

[3] = compound: CC1=C2C(=CC=C1)N=C(N(C2=O)C3=CC=CC=C3C)CN4C=NC5=C(N=CN=C54)N
How it was run: as §1

[4] = compound: Cc1sc2c(c1C)C(c1ccc(Cl)cc1)=N[C@@H](CC(=O)OC(C)(C)C)c1nnc(C)n1-2
How it was run: as §1

[5] = compound: c1ccc([C@@H]2C[C@H]2NC2CCNCC2)cc1
How it was run: as §1

Measured: log2 fold change

DNAJA2 (UniProt O60884)
inactive: [1] -0.007 | [2] -0.002 | [3] 0.009 | [4] 0.046 | [5] -0.023

DHRS3 (UniProt O75911)
inactive: [1] 0.073 | [2] 0.064 | [3] -0.091 | [4] 0.018 | [5] -0.004

DNAJB11 (UniProt Q9UBS4)
inactive: [1] 0.032 | [2] 0.011 | [3] 0.034 | [4] -0.033 | [5] -0.053

DNAH10 (UniProt Q8IVF4)
inactive: [1] 0.069 | [2] 0.014 | [3] 0.095 | [4] -0.081 | [5] -0.274

Copied from above (two entries):
DNAJA2 (UniProt O60884)
inactive: [1] -0.007 | [2] -0.002 | [3] 0.009 | [4] 0.046 | [5] -0.023

DHRS3 (UniProt O75911)
inactive: [1] 0.073 | [2] 0.064 | [3] -0.091 | [4] 0.018 | [5] -0.004

Later entries.

DIP2B (UniProt Q9P265)
inactive: [1] 0.013 | [2] 0.024 | [3] 0.021 | [4] 0.003 | [5] -0.014

DHFR (UniProt P00374)
inactive: [1] -0.024 | [2] 0.024 | [3] 0.016 | [4] 0.031 | [5] 0.021

DNAJB4 (UniProt Q9UDY4)
inactive: [1] -0.04 | [2] 0.006 | [3] 0.022 | [4] -0.005 | [5] 0.031

DGCR8 (UniProt Q8WYQ5)
inactive: [1] -0.05 | [2] 0.063 | [3] 0.004 | [4] 0.029 | [5] 0.017

DHDDS isoform 2 (UniProt Q86SQ9)
inactive: [1] 0.043 | [2] 0.125 | [3] 0.058 | [4] 0.027 | [5] 0
